Results are given in words; binding and its absence hold for the method and conditions named. Some entries that bind do so weakly or less than the wild type.
T1: CusB spin labeled at A236C and A248C positions (E. coli) (UniProt P77239)
T1 sequence (chain, MTSSL nitroxide spin label on the cysteines at 236 and 248): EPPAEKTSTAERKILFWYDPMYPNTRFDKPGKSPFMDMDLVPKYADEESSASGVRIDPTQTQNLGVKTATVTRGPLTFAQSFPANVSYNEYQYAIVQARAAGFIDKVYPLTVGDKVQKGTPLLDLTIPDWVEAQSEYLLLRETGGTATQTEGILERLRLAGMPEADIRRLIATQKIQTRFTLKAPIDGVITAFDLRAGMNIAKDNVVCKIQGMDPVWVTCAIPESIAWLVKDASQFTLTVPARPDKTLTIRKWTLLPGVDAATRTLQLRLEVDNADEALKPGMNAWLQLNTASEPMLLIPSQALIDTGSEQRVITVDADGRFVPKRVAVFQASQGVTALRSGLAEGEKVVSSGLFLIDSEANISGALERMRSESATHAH


Target: T1, CusB spin labeled at A236C and A248C positions (E. coli)
Assay: DEER (pulsed EPR) distance measurements with site-directed spin labeling; CusB spin labeled (MTSSL) at A236C and A248C, 0.01-0.02 mM; apo, holo (Cu(I):CusB 3:1), holo + pep5, + pep8 with Cu(I); Q-band, 50 K; binding inferred from the distance distributions; both purified

Row | binding | Binder
1 | binds | IQGMD (C-terminal amide) [pep5]
2 | binds | CusB spin labeled at A236C and A248C positions (protein, UniProt P77239 29-407, MTSSL nitroxide spin label on the cysteines at 236 and 248) EPPAEKTSTAERKILFWYDPMYPNTRFDKPGKSPFMDMDLVPKYADEESSASGVRIDPTQTQNLGVKTATVTRGPLTFAQSFPANVSYNEYQYAIVQARAAGFIDKVYPLTVGDKVQKGTPLLDLTIPDWVEAQSEYLLLRETGGTATQTEGILERLRLAGMPEADIRRLIATQKIQTRFTLKAPIDGVITAFDLRAGMNIAKDNVVCKIQGMDPVWVTCAIPESIAWLVKDASQFTLTVPARPDKTLTIRKWTLLPGVDAATRTLQLRLEVDNADEALKPGMNAWLQLNTASEPMLLIPSQALIDTGSEQRVITVDADGRFVPKRVAVFQASQGVTALRSGLAEGEKVVSSGLFLIDSEANISGALERMRSESATHAH

— publication PMC6936879, “Inhibiting the copper efflux system in microbes as a novel approach for developing antibiotics” (PLoS ONE, 2019)
